Data from the supplement of paper PMC10849652.
This is one part of the list.

Chains of the proteins cited; added tags and fusions are not shown. Lines headed by an entry give the natural chain unless they say otherwise; changes in a name come on top.
UniProt P26374: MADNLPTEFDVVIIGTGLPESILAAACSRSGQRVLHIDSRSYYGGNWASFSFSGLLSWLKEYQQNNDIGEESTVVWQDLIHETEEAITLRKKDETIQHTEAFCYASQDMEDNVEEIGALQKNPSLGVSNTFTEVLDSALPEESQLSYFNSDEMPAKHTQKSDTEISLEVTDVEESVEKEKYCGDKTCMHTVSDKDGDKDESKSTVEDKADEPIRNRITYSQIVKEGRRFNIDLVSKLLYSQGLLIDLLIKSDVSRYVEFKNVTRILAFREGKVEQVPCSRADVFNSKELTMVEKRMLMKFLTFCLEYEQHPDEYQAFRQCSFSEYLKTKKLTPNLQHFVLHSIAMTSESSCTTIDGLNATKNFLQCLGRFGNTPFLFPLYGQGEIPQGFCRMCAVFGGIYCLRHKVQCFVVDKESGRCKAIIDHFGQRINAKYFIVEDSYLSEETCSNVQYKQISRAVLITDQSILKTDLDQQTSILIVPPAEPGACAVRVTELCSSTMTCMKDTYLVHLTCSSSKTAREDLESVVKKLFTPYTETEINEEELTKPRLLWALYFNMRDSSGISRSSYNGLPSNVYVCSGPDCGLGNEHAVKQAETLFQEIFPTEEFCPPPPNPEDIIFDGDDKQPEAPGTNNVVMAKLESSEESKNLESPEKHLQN
UniProt Q9UFW8: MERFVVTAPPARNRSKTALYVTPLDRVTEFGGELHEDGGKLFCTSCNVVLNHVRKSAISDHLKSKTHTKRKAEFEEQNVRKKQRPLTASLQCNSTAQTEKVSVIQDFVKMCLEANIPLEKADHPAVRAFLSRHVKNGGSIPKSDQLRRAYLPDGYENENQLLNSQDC
UniProt Q8N2Z9: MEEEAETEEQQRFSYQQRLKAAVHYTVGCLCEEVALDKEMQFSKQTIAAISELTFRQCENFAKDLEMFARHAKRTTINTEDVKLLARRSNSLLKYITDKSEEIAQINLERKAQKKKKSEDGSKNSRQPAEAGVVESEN
UniProt O95674: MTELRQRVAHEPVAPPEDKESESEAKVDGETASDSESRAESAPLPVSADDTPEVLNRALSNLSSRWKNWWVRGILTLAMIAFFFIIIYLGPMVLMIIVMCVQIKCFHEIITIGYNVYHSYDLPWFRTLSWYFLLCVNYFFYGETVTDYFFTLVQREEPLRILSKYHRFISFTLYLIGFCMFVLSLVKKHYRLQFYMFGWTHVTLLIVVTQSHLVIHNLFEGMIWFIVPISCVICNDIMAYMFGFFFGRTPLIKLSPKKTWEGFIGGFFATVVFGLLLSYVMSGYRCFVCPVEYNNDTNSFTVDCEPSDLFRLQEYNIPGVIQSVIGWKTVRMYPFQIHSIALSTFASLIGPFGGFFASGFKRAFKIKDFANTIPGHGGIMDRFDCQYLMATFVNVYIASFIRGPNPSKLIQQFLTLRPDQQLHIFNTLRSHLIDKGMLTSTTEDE
UniProt O96017, whole entry, looked up: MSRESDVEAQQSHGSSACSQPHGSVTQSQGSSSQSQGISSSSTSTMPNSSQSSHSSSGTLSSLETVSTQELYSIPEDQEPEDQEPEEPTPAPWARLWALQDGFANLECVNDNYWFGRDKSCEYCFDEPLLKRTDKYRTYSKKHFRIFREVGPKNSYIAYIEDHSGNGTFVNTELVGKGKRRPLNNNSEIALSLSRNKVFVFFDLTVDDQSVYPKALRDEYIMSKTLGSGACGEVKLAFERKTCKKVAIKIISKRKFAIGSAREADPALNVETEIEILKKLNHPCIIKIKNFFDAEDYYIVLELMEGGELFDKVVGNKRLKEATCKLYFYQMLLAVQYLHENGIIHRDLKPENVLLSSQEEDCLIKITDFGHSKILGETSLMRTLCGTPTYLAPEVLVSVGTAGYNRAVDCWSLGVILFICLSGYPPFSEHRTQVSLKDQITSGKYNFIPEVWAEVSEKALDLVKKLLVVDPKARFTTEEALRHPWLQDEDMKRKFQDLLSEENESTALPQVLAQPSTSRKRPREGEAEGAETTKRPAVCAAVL
UniProt O43633: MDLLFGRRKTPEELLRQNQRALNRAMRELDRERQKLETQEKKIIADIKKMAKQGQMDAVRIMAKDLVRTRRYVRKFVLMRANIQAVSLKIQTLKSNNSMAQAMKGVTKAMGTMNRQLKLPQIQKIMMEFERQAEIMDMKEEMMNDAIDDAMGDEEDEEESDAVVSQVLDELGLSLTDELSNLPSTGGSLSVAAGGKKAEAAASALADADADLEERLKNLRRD
UniProt Q92879: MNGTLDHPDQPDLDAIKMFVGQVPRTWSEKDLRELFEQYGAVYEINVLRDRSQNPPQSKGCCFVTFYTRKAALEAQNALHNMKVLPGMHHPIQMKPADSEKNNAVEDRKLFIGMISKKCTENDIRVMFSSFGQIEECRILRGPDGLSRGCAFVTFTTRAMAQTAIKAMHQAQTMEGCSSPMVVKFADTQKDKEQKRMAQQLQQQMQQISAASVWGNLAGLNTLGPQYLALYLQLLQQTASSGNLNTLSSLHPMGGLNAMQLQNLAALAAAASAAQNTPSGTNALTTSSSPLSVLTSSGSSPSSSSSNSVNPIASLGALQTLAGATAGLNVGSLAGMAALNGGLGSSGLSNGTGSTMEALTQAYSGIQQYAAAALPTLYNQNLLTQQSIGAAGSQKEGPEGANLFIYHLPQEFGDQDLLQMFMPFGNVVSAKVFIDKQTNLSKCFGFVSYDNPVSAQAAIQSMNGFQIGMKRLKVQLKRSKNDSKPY
UniProt Q8TDI0: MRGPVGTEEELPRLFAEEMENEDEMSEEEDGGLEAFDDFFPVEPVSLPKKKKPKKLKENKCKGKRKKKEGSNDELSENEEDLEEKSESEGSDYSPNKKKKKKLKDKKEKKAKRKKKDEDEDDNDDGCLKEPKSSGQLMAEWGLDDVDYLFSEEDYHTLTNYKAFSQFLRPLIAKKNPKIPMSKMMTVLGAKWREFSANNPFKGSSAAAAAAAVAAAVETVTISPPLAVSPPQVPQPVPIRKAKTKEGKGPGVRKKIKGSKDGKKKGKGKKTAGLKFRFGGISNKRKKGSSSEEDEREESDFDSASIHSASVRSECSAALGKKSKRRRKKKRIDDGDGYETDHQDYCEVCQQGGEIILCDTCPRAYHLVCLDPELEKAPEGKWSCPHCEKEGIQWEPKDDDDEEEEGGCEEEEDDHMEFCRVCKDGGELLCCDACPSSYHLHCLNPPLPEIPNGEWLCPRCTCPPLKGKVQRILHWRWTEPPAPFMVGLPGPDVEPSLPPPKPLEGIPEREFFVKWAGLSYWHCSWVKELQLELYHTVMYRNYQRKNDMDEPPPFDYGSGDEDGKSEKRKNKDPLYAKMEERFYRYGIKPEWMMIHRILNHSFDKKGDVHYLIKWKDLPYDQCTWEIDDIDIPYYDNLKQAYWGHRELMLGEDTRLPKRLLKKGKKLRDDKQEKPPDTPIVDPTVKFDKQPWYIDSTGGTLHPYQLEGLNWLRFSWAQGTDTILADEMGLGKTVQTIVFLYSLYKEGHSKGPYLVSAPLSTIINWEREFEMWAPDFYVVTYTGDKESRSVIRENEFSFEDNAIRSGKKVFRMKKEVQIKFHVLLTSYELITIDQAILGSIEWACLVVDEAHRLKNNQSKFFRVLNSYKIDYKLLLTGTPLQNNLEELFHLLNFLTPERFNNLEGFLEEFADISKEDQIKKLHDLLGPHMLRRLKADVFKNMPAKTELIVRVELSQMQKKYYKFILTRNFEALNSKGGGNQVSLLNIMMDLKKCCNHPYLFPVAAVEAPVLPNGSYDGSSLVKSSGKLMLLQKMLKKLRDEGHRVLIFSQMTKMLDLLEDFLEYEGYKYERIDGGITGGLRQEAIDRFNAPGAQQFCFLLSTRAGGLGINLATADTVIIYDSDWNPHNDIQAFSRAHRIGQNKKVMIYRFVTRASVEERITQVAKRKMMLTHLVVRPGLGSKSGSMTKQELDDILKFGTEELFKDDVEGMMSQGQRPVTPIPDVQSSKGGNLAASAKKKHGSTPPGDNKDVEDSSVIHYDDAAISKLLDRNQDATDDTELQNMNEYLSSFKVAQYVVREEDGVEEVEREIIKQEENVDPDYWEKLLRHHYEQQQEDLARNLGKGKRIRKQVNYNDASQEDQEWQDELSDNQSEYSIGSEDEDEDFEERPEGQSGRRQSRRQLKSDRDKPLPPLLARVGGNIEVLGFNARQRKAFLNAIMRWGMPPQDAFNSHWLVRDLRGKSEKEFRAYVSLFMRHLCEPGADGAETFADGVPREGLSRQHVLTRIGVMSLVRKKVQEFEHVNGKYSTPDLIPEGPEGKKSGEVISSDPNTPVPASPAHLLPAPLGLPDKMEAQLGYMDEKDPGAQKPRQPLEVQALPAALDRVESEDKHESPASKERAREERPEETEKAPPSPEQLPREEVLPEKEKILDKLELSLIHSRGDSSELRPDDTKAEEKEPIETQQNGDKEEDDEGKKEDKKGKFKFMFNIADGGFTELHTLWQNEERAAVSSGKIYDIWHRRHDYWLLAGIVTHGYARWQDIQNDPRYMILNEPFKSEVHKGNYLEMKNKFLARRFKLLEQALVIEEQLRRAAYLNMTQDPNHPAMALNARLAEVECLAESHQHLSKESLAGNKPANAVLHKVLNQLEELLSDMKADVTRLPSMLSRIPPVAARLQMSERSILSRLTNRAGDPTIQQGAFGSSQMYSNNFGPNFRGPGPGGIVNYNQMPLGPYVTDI
UniProt Q99618: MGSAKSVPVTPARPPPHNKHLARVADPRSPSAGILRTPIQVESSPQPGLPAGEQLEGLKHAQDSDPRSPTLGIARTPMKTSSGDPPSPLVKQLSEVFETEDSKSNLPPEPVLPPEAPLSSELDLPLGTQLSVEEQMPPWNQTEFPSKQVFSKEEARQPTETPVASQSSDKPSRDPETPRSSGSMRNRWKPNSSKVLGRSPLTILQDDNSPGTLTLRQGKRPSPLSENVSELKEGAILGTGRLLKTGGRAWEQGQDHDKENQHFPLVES
UniProt Q9BY43: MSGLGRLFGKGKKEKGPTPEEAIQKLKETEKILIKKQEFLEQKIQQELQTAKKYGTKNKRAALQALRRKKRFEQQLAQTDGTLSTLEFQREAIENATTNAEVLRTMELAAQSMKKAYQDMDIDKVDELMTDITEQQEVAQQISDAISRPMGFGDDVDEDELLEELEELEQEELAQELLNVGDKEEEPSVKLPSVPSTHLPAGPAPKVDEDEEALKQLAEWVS
UniProt Q5VV42: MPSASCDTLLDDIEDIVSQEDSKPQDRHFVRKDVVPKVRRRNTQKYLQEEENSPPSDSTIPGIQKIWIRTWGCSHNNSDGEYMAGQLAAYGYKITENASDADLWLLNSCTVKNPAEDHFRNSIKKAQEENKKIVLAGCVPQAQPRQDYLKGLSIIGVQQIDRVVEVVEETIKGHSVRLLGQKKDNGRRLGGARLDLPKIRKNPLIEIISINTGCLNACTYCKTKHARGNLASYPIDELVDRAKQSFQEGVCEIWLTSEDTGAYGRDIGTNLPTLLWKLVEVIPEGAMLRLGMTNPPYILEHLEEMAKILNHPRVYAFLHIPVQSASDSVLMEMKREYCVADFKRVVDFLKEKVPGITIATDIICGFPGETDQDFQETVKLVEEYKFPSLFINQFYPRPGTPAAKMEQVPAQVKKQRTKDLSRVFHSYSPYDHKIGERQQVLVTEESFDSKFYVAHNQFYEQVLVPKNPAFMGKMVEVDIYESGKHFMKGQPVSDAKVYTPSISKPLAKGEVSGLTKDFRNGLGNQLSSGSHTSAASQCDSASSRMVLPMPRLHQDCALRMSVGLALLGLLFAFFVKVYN
UniProt P57076: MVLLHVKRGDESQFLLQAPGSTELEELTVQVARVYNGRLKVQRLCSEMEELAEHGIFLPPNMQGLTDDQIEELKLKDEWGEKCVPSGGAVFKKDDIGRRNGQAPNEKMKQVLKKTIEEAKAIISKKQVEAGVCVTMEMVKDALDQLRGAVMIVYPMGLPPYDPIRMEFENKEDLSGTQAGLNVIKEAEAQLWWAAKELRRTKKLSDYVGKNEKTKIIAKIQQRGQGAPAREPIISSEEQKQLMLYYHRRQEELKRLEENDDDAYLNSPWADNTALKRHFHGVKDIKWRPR
UniProt Q7LBR1: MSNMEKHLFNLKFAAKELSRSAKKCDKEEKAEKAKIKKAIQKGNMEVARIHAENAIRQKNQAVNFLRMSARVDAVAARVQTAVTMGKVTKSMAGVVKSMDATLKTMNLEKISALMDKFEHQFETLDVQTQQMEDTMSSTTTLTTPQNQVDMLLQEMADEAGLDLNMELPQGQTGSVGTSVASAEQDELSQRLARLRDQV
UniProt Q9C0F1: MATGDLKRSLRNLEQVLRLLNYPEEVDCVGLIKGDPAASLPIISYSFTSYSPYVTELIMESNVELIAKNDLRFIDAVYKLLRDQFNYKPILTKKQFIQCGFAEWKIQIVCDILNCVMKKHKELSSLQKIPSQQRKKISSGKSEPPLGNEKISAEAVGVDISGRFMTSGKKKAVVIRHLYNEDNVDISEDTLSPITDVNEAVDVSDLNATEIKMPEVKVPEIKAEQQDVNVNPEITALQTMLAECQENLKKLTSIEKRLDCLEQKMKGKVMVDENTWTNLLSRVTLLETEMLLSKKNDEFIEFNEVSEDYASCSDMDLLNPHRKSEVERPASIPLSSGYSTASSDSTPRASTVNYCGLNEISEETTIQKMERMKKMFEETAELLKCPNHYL

How the values were obtained:
Assay in all cases: log2 fold change, soluble protein after heating vs DMSO (PISA); higher = thermal stabilisation; K562 cells, 10 uM, 30 min; active = over 0.2 and 3.5 SD of the protein, either way, in both replicates (recomputed)
[1] = compound: CC[C@@H]1C(=O)N(C)c2cnc(Nc3ccc(C(=O)NC4CCN(C)CC4)cc3OC)nc2N1C1CCCC1
Method in brief: (§1)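 Aliquots of K562 cells (2×10^6 cells/mL) treated with 10 μM compound for 30 min were heated for 3 min over 48°C-58°C. After pooling and extraction in PBS with 0.5% NP-40 at 4°C, soluble protein from a 21,000xg, 90 min spin was quantified by TMTpro 16plex LC-MS/MS with channel sums equalised. Thermal stability is expressed against control samples, from duplicates, as a log2 fold change.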

volasertib = compound: CC[C@@H]1C(=O)N(C)c2cnc(Nc3ccc(C(=O)N[C@H]4CC[C@H](N5CCN(CC6CC6)CC5)CC4)cc3OC)nc2N1C(C)C [volasertib]
Method in brief: as §1

[2] = compound: CC[C@H](C)N1C=C(C2=C(C=C(C=C21)C3=CN=C(C=C3)N4CCNCC4)C(=O)NCC5=C(C=C(NC5=O)C)C)C
Method in brief: as §1

epoxomicin = compound: CC[C@H](C)[C@@H](C(=O)N[C@@H]([C@@H](C)O)C(=O)N[C@@H](CC(C)C)C(=O)[C@]1(CO1)C)NC(=O)[C@H]([C@@H](C)CC)N(C)C(=O)C [epoxomicin]
Method in brief: as §1

[3] = compound: CCn1c(C(=O)N(C2CC2)C2CC2)cc2c3c(ncn3C)c(Nc3cc(C)n(C)n3)nc21
Method in brief: as §1

[4] = compound: CCn1cc(-c2ccnc3[nH]c(-c4cccc(CN(C)C)c4)cc23)c(-c2ccc(NC(=O)N(C)C)cc2)n1
Method in brief: as §1

[5] = compound: CN(C)CC(=O)Nc1ccc2[nH]c(=O)c3ccccc3c2c1
Method in brief: as §1

rosiglitazone = compound: CN(CCOC1=CC=C(C=C1)C[C@H]2C(=O)NC(=O)S2)C3=CC=CC=N3 (racemic) [rosiglitazone]
Method in brief: as §1

[6] = compound: CN1C2=C(C3=C1C(=O)N(N=C3)CC4=CC(=CC=C4)N)SC(=C2)S(=O)C
Method in brief: as §1

[7] = compound: CN1CCC(CNc2ccc3ncc(-c4cccc(OC(F)(F)F)c4)n3n2)CC1
Method in brief: as §1

saracatinib = compound: CN1CCN(CCOc2cc(OC3CCOCC3)c3c(Nc4c(Cl)ccc5c4OCO5)ncnc3c2)CC1 [saracatinib]
Method in brief: as §1

sotrastaurin = compound: CN1CCN(c2nc(C3=C(c4c[nH]c5ccccc45)C(=O)NC3=O)c3ccccc3n2)CC1 [sotrastaurin]
Method in brief: as §1

alvocidib = compound: CN1CC[C@H](c2c(O)cc(O)c3c(=O)cc(-c4ccccc4Cl)oc23)[C@H](O)C1 [alvocidib]
Method in brief: as §1

Tubastatin A = compound: CN1CCc2c(c3ccccc3n2Cc2ccc(C(=O)NO)cc2)C1 [Tubastatin A]
Method in brief: as §1

[8] = compound: CNC(=O)C1=CC=CC=C1NC2=NC(=NC=C2Cl)NC3=C(C=C(C=C3)N4CCOCC4)OC
Method in brief: as §1

defactinib = compound: CNC(=O)c1ccc(Nc2ncc(C(F)(F)F)c(NCc3nccnc3N(C)S(C)(=O)=O)n2)cc1 [defactinib]
Method in brief: as §1

rucaparib = compound: CNCc1ccc(-c2[nH]c3cc(F)cc4c3c2CCNC4=O)cc1 [rucaparib]
Method in brief: as §1

[9] = compound: CNc1nc(-c2ccc3c(N)n[nH]c3c2)cc(N2C[C@@H](C(=O)NC3CCCCC3)CC[C@H]2C)n1
Method in brief: as §1

encorafenib = compound: COC(=O)N[C@@H](C)CNc1nccc(-c2cn(C(C)C)nc2-c2cc(Cl)cc(NS(C)(=O)=O)c2F)n1 [encorafenib]
Method in brief: as §1

[10] = compound: COC(=O)[C@H](CCSC)NC(=O)C1=C(C=C(C=C1)NC[C@H](CS)N)C2=CC=CC=C2
Method in brief: as §1

Measured: log2 fold change

CDCP1 (UniProt Q9H5V8)
inactive: [1] 0.087 | volasertib -0.011 | [2] -0.016 | epoxomicin -0.022 | [3] -0.02 | [4] 0.043 | [5] 0.023 | rosiglitazone 0.02 | [6] -0.125 | [7] 0.179 | saracatinib 0.042 | sotrastaurin 0.028 | alvocidib -0.027 | Tubastatin A 0.012 | [8] -0.083 | defactinib -0.056 | rucaparib -0.032 | [9] -0.012 | encorafenib 0.034 | [10] -0.009

CHML (UniProt P26374)
inactive: [1] 0 | volasertib -0.086 | [2] 0.008 | epoxomicin -0.004 | [3] -0.045 | [4] -0.055 | [5] -0.002 | rosiglitazone 0.028 | [6] -0.07 | [7] 0.036 | saracatinib 0 | sotrastaurin 0.035 | alvocidib -0.053 | Tubastatin A -0.033 | [8] -0.013 | defactinib -0.01 | rucaparib -0.059 | [9] -0.019 | encorafenib 0 | [10] -0.007

CGGBP1 (UniProt Q9UFW8)
inactive: [1] 0.017 | volasertib 0.061 | [2] 0.025 | epoxomicin 0.012 | [3] -0.007 | [4] 0.004 | [5] -0.059 | rosiglitazone -0.011 | [6] 0.021 | [7] 0.028 | saracatinib -0.004 | sotrastaurin -0.003 | alvocidib -0.006 | Tubastatin A -0.006 | [8] 0.047 | defactinib -0.006 | rucaparib 0.046 | [9] -0.008 | encorafenib 0.026 | [10] 0.028

CERS5 (UniProt Q8N5B7)
inactive: [1] 0.06 | volasertib -0.014 | [2] 0.007 | epoxomicin -0.005 | [3] 0.073 | [4] -0.11 | [5] -0.035 | rosiglitazone 0.047 | [6] -0.048 | [7] -0.241 | saracatinib 0.024 | sotrastaurin -0.026 | alvocidib -0.008 | Tubastatin A -0.049 | [8] -0.055 | defactinib -0.028 | rucaparib 0.032 | [9] -0.029 | encorafenib -0.064 | [10] 0.068

CENPS (UniProt Q8N2Z9)
inactive: [1] -0.156 | volasertib -0.057 | [2] -0.032 | epoxomicin 0.059 | [3] 0.016 | [4] -0.009 | [5] -0.009 | rosiglitazone -0.097 | [6] 0.007 | [7] 0.014 | saracatinib -0.064 | sotrastaurin 0.027 | alvocidib -0.008 | Tubastatin A -0.089 | [8] -0.064 | defactinib -0.027 | rucaparib -0.097 | [9] -0.011 | encorafenib 0.076 | [10] 0.061

CDS2 (UniProt O95674)
inactive: [1] -0.039 | volasertib 0.028 | [2] -0.075 | epoxomicin -0.036 | [3] 0.032 | [4] -0.023 | [5] 0.015 | rosiglitazone -0.003 | [6] 0.046 | [7] -0.009 | saracatinib 0.04 | sotrastaurin 0.091 | alvocidib 0.03 | Tubastatin A 0.058 | [8] -0.009 | defactinib -0.04 | rucaparib -0.005 | [9] -0.167 | encorafenib -0.009 | [10] 0.007

CHEK2 isoform 9 (UniProt O96017)
inactive: [1] -0.023 | volasertib -0.075 | [2] 0.016 | epoxomicin 0.093 | [3] 0.004 | [4] -0.05 | [5] -0.027 | rosiglitazone 0.069 | [6] -0.038 | [7] 0.004 | saracatinib 0.037 | sotrastaurin 0.035 | alvocidib -0.103 | Tubastatin A 0.002 | [8] -0.161 | defactinib -0.01 | rucaparib -0.015 | [9] 0.008 | encorafenib 0.032 | [10] 0.009

CHMP2A (UniProt O43633)
inactive: [1] -0.059 | volasertib -0.04 | [2] 0.006 | epoxomicin 0.039 | [3] 0.021 | [4] -0.035 | [5] -0.004 | rosiglitazone 0.002 | [6] -0.034 | [7] -0.025 | saracatinib 0.062 | sotrastaurin 0.011 | alvocidib -0.05 | Tubastatin A 0.019 | [8] -0.008 | defactinib -0.014 | rucaparib -0.061 | [9] -0.015 | encorafenib 0.03 | [10] -0.026

CELF1 isoform 4 (UniProt Q92879)
inactive: [1] -0.088 | volasertib -0.345 | [2] 0.171 | epoxomicin 0.003 | [3] -0.144 | [4] -0.062 | [5] 0.118 | rosiglitazone 0.082 | [6] -0.039 | [7] -0.032 | saracatinib -0.002 | sotrastaurin -0.103 | alvocidib -0.127 | Tubastatin A 0.06 | [8] -0.008 | defactinib -0.032 | rucaparib 0.107 | [9] 0.035 | encorafenib 0.076 | [10] -0.105

CHD5 (UniProt Q8TDI0)
inactive: [1] -0.128 | volasertib -0.158 | [2] 0.261 | epoxomicin 0.18 | [3] -0.055 | [4] -0.025 | [5] 0.075 | rosiglitazone 0.01 | [6] 0.107 | [7] -0.201 | saracatinib -0.05 | sotrastaurin -0.369 | alvocidib -0.197 | Tubastatin A 0.112 | [8] 0.032 | defactinib -0.26 | rucaparib 0.208 | [9] 0.079 | encorafenib 0.174 | [10] -0.167

CDCA3 (UniProt Q99618)
inactive: [1] 0.057 | volasertib 0.088 | [2] -0.053 | epoxomicin 0.009 | [3] 0.059 | [4] -0.025 | [5] 0.002 | rosiglitazone -0.011 | [6] 0.02 | [7] 0.011 | saracatinib -0.033 | sotrastaurin 0.072 | alvocidib -0.017 | Tubastatin A 0 | [8] -0.008 | defactinib 0.009 | rucaparib 0.005 | [9] -0.019 | encorafenib -0.051 | [10] 0.006

CHMP4A isoform 2 (UniProt Q9BY43)
inactive: [1] -0.015 | volasertib 0.083 | [2] -0.034 | epoxomicin 0.025 | [3] 0.02 | [4] 0.004 | [5] -0.061 | rosiglitazone -0.028 | [6] -0.022 | [7] -0.042 | saracatinib 0.014 | sotrastaurin 0.027 | alvocidib 0.082 | Tubastatin A -0.001 | [8] -0.053 | defactinib 0.013 | rucaparib -0.046 | [9] -0.027 | encorafenib -0.05 | [10] 0.028

CDKAL1 (UniProt Q5VV42)
inactive: [1] 0.1 | volasertib 0.039 | [2] 0.046 | epoxomicin -0.02 | [3] -0.021 | [4] -0.036 | [5] 0.02 | rosiglitazone 0.071 | [6] -0.014 | [7] -0.01 | saracatinib -0.082 | sotrastaurin 0.025 | alvocidib 0.051 | Tubastatin A -0.162 | [8] -0.018 | defactinib -0.074 | rucaparib 0.024 | [9] 0.054 | encorafenib 0 | [10] -0.001

Three neighbouring records already listed:
CERS5 (UniProt Q8N5B7)
inactive: [1] 0.06 | volasertib -0.014 | [2] 0.007 | epoxomicin -0.005 | [3] 0.073 | [4] -0.11 | [5] -0.035 | rosiglitazone 0.047 | [6] -0.048 | [7] -0.241 | saracatinib 0.024 | sotrastaurin -0.026 | alvocidib -0.008 | Tubastatin A -0.049 | [8] -0.055 | defactinib -0.028 | rucaparib 0.032 | [9] -0.029 | encorafenib -0.064 | [10] 0.068

CENPS (UniProt Q8N2Z9)
inactive: [1] -0.156 | volasertib -0.057 | [2] -0.032 | epoxomicin 0.059 | [3] 0.016 | [4] -0.009 | [5] -0.009 | rosiglitazone -0.097 | [6] 0.007 | [7] 0.014 | saracatinib -0.064 | sotrastaurin 0.027 | alvocidib -0.008 | Tubastatin A -0.089 | [8] -0.064 | defactinib -0.027 | rucaparib -0.097 | [9] -0.011 | encorafenib 0.076 | [10] 0.061

CDS2 (UniProt O95674)
inactive: [1] -0.039 | volasertib 0.028 | [2] -0.075 | epoxomicin -0.036 | [3] 0.032 | [4] -0.023 | [5] 0.015 | rosiglitazone -0.003 | [6] 0.046 | [7] -0.009 | saracatinib 0.04 | sotrastaurin 0.091 | alvocidib 0.03 | Tubastatin A 0.058 | [8] -0.009 | defactinib -0.04 | rucaparib -0.005 | [9] -0.167 | encorafenib -0.009 | [10] 0.007

(list continues)

CFAP298 (UniProt P57076)
inactive: [1] 0.151 | volasertib -0.58 | [2] -0.179 | epoxomicin 0.115 | [3] -0.072 | [4] -0.027 | [5] 0.044 | rosiglitazone 0.094 | [6] 0.37 | [7] -0.068 | saracatinib -0.238 | sotrastaurin -0.038 | alvocidib 0.054 | Tubastatin A 0.328 | [8] 0.026 | defactinib 0 | rucaparib 0.4 | [9] 0.11 | encorafenib 0.127 | [10] -0.17

CHMP1B (UniProt Q7LBR1)
inactive: [1] 0.017 | volasertib -0.173 | [2] -0.078 | epoxomicin -0.026 | [3] 0.05 | [4] -0.012 | [5] -0.092 | rosiglitazone 0.008 | [6] -0.009 | [7] -0.034 | saracatinib 0.02 | sotrastaurin -0.005 | alvocidib -0.018 | Tubastatin A -0.021 | [8] -0.022 | defactinib 0.014 | rucaparib -0.038 | [9] -0.059 | encorafenib 0 | [10] 0.058

CEP44 (UniProt Q9C0F1)
inactive: [1] 0.087 | volasertib -0.382 | [2] -0.044 | epoxomicin -0.145 | [3] 0.05 | [4] 0.065 | [5] -0.035 | rosiglitazone 0.167 | [6] 0.143 | [7] -0.083 | saracatinib 0.147 | sotrastaurin -0.176 | alvocidib 0.011 | Tubastatin A -0.018 | [8] 0.082 | defactinib -0.104 | rucaparib -0.285 | [9] 0.019 | encorafenib -0.076 | [10] 0.177
